Experimental data from paper PMC4986951.
No constants are given. Whether binding was seen depends on the method and setting. For part of these data: In cells and extracts the contact can be indirect. Some binding calls cover weakened binding; strength is not graded here. Tags and fused reporters may be left off the sequences shown. Blank lines part the entries; values can stand above or below the binder they belong to.

Key:
[1] = target: T1, BD-PI4Kγ5 (Arabidopsis type II phosphatidylinositol 4-kinase PI4Kγ5, two-hybrid bait) (Arabidopsis thaliana) (UniProt Q9C671); experiment: two-hybrid; library screen with BD-PI4Kγ5 as bait on SD (-Leu/-Trp/-His/-Ade) plates; candidate clones confirmed by growth after co-transformation
T1 sequence: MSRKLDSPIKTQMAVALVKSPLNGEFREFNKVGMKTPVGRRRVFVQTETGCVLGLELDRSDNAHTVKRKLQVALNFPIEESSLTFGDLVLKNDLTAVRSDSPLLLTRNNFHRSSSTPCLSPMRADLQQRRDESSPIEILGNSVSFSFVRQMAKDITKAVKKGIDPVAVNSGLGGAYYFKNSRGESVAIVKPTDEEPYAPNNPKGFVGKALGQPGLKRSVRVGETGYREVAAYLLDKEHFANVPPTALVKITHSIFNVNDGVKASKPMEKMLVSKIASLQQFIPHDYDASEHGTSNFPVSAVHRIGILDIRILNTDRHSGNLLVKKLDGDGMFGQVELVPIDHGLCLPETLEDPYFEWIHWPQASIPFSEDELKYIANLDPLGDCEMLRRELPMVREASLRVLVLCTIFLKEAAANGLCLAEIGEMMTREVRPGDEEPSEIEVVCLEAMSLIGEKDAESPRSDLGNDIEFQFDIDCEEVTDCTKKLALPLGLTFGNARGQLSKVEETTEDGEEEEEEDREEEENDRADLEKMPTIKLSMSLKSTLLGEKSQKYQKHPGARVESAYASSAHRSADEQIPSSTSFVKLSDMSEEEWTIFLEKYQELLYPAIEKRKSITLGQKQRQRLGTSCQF

[2] = target: T2, pGBKT7-ANAC078 (ANAC078 as two-hybrid bait fusion) (Arabidopsis thaliana) (UniProt Q84K00); experiment: two-hybrid; yeast co-transformed with pGBKT7-ANAC078 and pGADT7-PI4Kγ5, dilution series on SD(-Leu-Trp-His-Ade) with X-α-gal; α-Gal activity; pGBKT7-ANAC078 with empty pGADT7 as negative control
T2 sequence: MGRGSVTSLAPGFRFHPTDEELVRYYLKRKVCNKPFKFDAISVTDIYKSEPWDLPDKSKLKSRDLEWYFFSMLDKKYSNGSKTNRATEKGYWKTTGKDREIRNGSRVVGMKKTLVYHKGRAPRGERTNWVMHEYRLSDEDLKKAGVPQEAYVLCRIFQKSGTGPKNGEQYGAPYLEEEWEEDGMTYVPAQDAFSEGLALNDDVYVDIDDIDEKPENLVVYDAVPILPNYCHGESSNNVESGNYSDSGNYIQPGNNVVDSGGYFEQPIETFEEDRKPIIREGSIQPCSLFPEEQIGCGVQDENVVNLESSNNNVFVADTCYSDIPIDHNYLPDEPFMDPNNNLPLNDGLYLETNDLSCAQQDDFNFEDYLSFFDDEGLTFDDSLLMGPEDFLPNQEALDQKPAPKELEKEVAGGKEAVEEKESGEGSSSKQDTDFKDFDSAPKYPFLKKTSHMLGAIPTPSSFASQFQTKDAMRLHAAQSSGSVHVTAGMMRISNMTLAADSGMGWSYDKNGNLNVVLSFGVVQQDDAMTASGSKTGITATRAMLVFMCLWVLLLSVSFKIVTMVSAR

[3] = target: T3, ANAC078-cLuc (Arabidopsis thaliana) (UniProt Q84K00); experiment: split reporter; firefly luciferase complementation; PI4Kγ5-nLuc and ANAC078-cLuc co-expressed through Agrobacterium in Nicotiana benthamiana leaves, observed after 48 h
T3 sequence: T2 sequence

- binding [1]: binds
B1: ANAC078 fragment (271–410 aa), prey clones of the two-hybrid screen (domain or fragment, UniProt Q84K00 271-410)
chain: EEDRKPIIREGSIQPCSLFPEEQIGCGVQDENVVNLESSNNNVFVADTCYSDIPIDHNYLPDEPFMDPNNNLPLNDGLYLETNDLSCAQQDDFNFEDYLSFFDDEGLTFDDSLLMGPEDFLPNQEALDQKPAPKELEKEV

- binding [2]: binds
B2: pGADT7-PI4Kγ5 (PI4Kγ5 as two-hybrid prey fusion) (enzyme, UniProt Q9C671 1-630)
chain: T1 sequence

- binding [3]: binds
B3: PI4Kγ5-nLuc (enzyme, UniProt Q9C671 1-630)
chain: T1 sequence
